# Experimental data reported in PMC10403523.
# Amino acid sequences for entries named in this document (tags omitted). A change or cut given only in a name is not applied to a line headed by its entry. Chains listed by the source or under a name are the forms on record and can include a tag or linker.
# UniProt Q3TKT4: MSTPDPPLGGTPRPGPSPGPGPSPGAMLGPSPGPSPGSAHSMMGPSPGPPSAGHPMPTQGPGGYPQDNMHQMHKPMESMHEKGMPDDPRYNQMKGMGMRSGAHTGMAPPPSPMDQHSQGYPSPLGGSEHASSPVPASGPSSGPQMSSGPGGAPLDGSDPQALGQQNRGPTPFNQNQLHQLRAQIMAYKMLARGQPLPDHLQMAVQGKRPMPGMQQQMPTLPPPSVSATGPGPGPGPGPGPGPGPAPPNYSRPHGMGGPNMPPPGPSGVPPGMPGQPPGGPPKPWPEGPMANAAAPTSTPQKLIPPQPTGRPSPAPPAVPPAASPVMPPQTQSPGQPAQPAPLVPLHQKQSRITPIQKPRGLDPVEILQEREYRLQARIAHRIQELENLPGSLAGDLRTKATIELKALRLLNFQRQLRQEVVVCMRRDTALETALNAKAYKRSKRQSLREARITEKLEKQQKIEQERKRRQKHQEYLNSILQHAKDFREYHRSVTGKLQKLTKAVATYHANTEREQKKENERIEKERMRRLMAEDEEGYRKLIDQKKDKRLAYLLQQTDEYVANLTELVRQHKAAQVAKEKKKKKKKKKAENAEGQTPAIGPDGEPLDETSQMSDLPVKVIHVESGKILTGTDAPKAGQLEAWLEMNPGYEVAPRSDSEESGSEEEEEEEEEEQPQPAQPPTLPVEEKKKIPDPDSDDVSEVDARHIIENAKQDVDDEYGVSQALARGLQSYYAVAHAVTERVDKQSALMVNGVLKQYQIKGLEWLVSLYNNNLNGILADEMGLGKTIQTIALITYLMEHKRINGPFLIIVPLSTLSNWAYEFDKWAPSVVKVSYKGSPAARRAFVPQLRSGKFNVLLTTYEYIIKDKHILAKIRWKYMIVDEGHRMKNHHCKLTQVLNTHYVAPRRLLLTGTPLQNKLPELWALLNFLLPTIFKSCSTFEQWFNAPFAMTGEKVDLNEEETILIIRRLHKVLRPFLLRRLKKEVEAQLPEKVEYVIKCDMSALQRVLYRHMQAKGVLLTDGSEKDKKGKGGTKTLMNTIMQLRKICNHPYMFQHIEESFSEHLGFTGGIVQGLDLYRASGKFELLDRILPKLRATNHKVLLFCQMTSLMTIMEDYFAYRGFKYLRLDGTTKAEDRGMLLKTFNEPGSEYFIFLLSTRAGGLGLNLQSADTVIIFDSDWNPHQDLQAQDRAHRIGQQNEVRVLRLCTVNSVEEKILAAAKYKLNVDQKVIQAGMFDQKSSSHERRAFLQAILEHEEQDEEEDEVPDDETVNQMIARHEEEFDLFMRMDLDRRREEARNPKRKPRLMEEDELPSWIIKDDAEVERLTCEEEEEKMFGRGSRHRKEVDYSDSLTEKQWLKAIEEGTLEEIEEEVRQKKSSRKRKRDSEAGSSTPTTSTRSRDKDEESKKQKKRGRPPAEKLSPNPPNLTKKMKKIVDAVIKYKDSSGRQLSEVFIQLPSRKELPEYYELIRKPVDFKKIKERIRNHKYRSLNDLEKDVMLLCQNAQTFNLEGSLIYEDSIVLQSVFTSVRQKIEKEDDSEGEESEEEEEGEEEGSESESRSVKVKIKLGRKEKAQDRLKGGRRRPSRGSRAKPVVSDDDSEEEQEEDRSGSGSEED
# Smarca4/Brg1 with the AT-hook deleted (ΔAT), HA-tagged (mouse (endogenous in mESCs)) (Q3TKT4, form named): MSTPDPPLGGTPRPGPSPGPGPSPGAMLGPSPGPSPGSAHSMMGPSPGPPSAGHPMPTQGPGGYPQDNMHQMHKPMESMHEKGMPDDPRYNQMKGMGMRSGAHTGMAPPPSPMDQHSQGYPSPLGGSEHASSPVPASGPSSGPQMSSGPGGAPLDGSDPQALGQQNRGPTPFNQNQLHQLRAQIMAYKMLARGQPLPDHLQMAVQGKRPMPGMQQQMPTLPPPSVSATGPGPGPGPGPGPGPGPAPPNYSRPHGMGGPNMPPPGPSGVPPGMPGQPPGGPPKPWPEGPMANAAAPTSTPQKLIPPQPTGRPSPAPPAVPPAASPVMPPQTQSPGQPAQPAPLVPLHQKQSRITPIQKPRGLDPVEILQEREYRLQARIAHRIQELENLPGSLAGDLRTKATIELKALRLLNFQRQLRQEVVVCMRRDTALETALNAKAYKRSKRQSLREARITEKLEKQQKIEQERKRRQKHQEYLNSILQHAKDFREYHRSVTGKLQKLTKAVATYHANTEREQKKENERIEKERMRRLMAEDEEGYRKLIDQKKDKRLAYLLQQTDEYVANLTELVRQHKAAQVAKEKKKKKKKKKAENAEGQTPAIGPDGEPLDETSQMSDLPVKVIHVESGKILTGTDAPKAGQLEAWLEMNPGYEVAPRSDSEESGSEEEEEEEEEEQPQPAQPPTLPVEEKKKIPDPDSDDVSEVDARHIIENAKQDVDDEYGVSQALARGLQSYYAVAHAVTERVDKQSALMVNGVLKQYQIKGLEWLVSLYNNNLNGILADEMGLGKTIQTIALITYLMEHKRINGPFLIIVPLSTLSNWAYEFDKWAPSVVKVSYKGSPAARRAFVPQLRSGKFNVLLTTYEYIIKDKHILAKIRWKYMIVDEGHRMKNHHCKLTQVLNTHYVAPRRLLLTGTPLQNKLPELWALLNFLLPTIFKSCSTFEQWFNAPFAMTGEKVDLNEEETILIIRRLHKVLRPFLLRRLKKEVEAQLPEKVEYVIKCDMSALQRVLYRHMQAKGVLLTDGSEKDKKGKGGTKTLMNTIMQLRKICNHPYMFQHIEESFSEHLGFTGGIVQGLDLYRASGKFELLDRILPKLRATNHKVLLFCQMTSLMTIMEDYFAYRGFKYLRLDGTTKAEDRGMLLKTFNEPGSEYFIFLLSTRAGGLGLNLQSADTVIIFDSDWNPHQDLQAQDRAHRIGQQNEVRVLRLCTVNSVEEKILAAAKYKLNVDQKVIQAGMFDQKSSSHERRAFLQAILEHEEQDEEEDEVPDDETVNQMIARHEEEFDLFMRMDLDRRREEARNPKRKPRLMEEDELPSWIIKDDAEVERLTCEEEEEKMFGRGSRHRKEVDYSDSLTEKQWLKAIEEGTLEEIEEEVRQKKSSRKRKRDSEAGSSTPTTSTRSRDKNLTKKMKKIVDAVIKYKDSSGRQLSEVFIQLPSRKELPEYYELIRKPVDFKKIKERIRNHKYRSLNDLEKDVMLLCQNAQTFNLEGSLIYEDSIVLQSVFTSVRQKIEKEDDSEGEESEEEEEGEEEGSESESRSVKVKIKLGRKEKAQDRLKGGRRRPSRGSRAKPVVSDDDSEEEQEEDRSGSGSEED
# UniProt A2BH40: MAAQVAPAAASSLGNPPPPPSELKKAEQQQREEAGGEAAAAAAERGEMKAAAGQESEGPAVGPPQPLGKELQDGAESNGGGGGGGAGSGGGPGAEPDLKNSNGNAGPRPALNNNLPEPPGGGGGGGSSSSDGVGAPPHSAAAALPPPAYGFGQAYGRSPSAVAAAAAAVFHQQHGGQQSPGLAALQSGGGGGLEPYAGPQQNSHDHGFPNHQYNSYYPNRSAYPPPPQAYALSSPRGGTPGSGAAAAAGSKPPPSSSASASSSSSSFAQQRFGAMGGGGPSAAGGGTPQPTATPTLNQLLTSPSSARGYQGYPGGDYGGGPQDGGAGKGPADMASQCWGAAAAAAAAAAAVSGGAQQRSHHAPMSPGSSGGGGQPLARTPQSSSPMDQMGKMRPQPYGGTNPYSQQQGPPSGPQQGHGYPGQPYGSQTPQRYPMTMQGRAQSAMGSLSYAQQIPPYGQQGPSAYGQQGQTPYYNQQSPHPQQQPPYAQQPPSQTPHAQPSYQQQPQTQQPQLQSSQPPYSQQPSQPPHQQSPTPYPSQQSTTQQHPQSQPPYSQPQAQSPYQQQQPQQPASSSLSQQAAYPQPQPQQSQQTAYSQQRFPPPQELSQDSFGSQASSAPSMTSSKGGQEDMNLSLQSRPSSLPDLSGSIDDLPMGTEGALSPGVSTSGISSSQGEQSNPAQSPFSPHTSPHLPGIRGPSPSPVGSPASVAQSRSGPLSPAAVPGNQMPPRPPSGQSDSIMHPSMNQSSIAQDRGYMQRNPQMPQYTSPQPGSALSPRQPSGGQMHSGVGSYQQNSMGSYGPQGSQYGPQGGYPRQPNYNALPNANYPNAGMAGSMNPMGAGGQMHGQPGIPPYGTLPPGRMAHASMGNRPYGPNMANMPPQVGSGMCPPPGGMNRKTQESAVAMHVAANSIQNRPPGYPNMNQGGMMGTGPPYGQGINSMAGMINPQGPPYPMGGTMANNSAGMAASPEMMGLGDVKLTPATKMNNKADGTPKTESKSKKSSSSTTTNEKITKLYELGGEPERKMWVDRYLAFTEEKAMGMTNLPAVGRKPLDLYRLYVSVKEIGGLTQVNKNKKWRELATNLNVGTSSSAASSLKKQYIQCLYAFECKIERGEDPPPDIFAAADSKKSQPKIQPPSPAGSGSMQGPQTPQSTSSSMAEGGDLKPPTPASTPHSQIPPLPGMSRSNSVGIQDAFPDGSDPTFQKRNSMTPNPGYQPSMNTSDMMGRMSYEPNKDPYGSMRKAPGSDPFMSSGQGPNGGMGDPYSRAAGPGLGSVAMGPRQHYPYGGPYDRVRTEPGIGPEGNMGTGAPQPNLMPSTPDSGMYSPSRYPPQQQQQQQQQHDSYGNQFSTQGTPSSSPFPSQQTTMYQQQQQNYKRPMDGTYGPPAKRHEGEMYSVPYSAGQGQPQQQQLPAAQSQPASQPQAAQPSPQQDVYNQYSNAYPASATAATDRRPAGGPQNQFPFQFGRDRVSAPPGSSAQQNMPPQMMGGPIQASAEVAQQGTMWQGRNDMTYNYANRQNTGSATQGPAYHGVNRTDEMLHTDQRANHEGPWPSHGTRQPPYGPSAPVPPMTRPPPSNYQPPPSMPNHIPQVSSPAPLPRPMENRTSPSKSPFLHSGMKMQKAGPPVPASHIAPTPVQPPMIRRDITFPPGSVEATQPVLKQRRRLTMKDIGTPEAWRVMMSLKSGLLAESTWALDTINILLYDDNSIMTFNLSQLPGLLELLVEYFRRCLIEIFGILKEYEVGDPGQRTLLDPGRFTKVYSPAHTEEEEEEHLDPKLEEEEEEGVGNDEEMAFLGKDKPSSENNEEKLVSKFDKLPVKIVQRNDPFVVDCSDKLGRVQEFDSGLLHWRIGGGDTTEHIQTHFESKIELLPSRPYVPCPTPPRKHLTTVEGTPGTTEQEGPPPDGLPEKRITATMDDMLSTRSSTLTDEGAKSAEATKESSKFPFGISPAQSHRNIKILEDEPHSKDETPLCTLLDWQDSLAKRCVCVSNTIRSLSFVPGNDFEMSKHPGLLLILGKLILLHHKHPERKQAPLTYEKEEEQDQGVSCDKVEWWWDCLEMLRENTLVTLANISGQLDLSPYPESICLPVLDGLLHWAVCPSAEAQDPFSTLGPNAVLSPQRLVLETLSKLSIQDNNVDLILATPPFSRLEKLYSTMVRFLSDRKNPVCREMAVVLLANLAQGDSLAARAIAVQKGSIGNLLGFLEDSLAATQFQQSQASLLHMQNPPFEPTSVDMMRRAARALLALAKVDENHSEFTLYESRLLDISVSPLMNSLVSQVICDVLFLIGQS
# Legend:
# [1] = biological target: Smarca4/Brg1 with the AT-hook deleted (ΔAT), HA-tagged (mouse (endogenous in mESCs)) (UniProt Q3TKT4); assay: affinity purification with mass spectrometry; anti-HA agarose beads on nuclear extract of primed mESCs with HA-tagged Brg1 (WT or ΔAT), eluted with HA peptide; DIA mass spectrometry
# [2] = biological target: Smarca4/Brg1, wild type, HA-tagged (mouse (endogenous in mESCs)) (UniProt Q3TKT4); assay: as above
substance,measurement,setting,value
Arid1a subunit of mouse SWI/SNF (from UniProt A2BH40 1-2283),binding,[1],binds
same,binding,[2],binds
Arid1b subunit of mouse SWI/SNF (from UniProt E9Q4N7 1-2306),binding,[1],binds
same,binding,[2],binds

# Results are given in words; binding and its absence hold for the method and conditions named. Binding seen in cells or lysates may run through a third protein. A yes stands for co-enrichment or nearness to the bait. Other partners may have been found.
